Paper PMC9905200
Results are given in words; binding and its absence hold for the method and conditions named. Binding seen in cells or lysates may run through a third protein. Some binding calls cover weakened binding; strength is not graded here. One block for each molecule: values may come before it.

Protein sequences, listed by entry. Tags and fused reporters are not part of them. Lines headed by an entry give the natural chain unless they say otherwise; changes in a name come on top. Chains listed by the source or under a name are the forms on record and can include a tag or linker. Residues count along the entry.
human apolipoprotein E3 (APOE3) in APOE3 targeted replacement mouse liver (P02649, residues 19-317): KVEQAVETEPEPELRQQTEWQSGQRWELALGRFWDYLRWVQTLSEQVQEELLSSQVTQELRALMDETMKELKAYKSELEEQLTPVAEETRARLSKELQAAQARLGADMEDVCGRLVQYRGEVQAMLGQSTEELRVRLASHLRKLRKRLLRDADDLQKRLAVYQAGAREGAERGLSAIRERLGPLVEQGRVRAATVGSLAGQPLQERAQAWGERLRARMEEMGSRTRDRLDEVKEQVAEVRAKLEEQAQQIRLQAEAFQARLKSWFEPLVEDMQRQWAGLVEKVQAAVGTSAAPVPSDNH
human apolipoprotein E4 (APOE4) in APOE4 targeted replacement mouse liver (P02649, form named): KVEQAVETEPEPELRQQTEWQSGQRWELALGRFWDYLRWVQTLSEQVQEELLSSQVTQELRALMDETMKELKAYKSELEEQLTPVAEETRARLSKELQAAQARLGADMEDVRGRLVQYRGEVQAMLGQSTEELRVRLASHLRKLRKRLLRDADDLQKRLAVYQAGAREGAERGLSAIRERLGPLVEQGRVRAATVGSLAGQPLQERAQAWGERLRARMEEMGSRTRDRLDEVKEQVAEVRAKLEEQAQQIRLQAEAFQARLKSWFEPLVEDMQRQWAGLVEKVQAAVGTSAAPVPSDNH
UniProt P21796: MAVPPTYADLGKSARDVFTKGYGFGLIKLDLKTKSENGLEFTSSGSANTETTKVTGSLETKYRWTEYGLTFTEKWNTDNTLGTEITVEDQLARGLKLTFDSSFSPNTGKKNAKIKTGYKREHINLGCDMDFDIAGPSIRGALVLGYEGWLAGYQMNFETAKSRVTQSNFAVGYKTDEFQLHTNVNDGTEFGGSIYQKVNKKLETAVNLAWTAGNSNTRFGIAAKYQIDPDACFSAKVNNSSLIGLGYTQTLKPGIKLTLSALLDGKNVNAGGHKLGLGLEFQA

Key:
[1] = target: human apolipoprotein E3 (APOE3) expressed in transfected Huh7 cells (human) (UniProt P02649); experiment: co-IP; APOE precipitated with anti-APOE antibody (sc-13521) and Protein G Sepharose from lysates (NP40 lysis buffer, 4 °C) of APOE3- or APOE4-transfected Huh7 cells, Western blot
[2] = target: human apolipoprotein E4 (APOE4) expressed in transfected Huh7 cells (human) (UniProt P02649); experiment: as above
[3] = target: human apolipoprotein E3 (APOE3) expressed in transfected Huh7 cells (human) (UniProt P02649); experiment: proximity ligation; in situ in intact fixed, permeabilized Huh7 cells transfected to express APOE3 or APOE4; PLA signals per cell counted; controls: no antibody, APOE negative control, BCKDHA-HH3 PLA, nontransfected cells
[4] = target: human apolipoprotein E4 (APOE4) expressed in transfected Huh7 cells (human) (UniProt P02649); experiment: as above
[5] = target: human apolipoprotein E3 (APOE3) in APOE3 targeted replacement mouse liver (human) (UniProt P02649); experiment: co-IP; APOE precipitated with anti-APOE antibody (sc-13521) and Protein G Sepharose from liver lysates (NP40 lysis buffer, 4 °C) of male APOE TR mice, Western blot of the eluates; mice fed ad libitum (AL) or under 30% dietary restriction (DR); interactions stronger upon DR
[6] = target: human apolipoprotein E4 (APOE4) in APOE4 targeted replacement mouse liver (human) (UniProt P02649); experiment: as above

binding [1]: binds
binding [2]: binds
binding [3]: binds
binding [4]: binds
Molecule: voltage-dependent anion-selective channel 1 (VDAC1), human, in Huh7 cells (from UniProt P21796 1-283)

binding [1]: binds
binding [2]: binds
binding [3]: binds
binding [4]: binds
B1: branched-chain alpha-keto acid dehydrogenase subunit alpha (BCKDHA), human, in Huh7 cells (protein, UniProt P12694 46-445)
chain: SSLDDKPQFPGASAEFIDKLEFIQPNVISGIPIYRVMDRQGQIINPSEDPHLPKEKVLKLYKSMTLLNTMDRILYESQRQGRISFYMTNYGEEGTHVGSAAALDNTDLVFGQYREAGVLMYRDYPLELFMAQCYGNISDLGKGRQMPVHYGCKERHFVTISSPLATQIPQAVGAAYAAKRANANRVVICYFGEGAASEGDAHAGFNFAATLECPIIFFCRNNGYAISTPTSEQYRGDGIAARGPGYGIMSIRVDGNDVFAVYNATKEARRRAVAENQPFLIEAMTYRIGHHSTSDDSSAYRSVDEVNYWDKQDHPISRLRHYLLSQGWWDEEQEKAWRKQSRRKVMEAFEQAERKPKPNPNLLFSDVYQEMPAQLRKQQESLARHLQTYGEHYPLDHFDK

binding [5]: binds
binding [6]: binds
B2: branched-chain alpha-keto acid dehydrogenase (BCKD) complex subunit alpha (BCKDHA), mouse liver (protein, UniProt P50136 43-442)
chain: PSLDDKPQFPGASAEFVDKLEFIQPNVISGIPIYRVMDRQGQIINPSEDPHLPQEEVLKFYRSMTLLNTMDRILYESQREGRISFYMTNYGEEGTHVGSAAALERTDLVFGQYREAGVLMYRDYPLELFMSQCYGNVNDPGKGRQMPVHYGCKERHFVTISSPLATQIPQAVGAAYAAKRANANRIVICYFGEGAASEGDAHAGFNFAATLECPIIFFCRNNGYAISTPTSEQYRGDGIAARGPGYGIKSIRVDGNDVFAVYNATKEARRRAVAENQPFLIEAMTYRIGHHSTSDDSSAYRSVDEVNYWDKQDHPISRLRQYLLNQGWWDEEQEKAWRKQSRKKVMEAFEQAERKLKPNPSLLFSDVYQEMPAQLRRQQESLARHLQTYGEHYPLDHFEK
